# About 170 (0.05%) of roughly 340,000 compounds were called active. Inconclusive results, whose numbers are uncertain, are shown with a selection of clear calls. The call rests on the fitted dose curve; in most records, active means well fitted inhibition curve with a large enough effect in the signal ratio, with a control signal flat (not every such curve was filed as active); inconclusive means small, poorly fitted or top-dose-only effect, or effect the other way, or a change in a side signal; inactive means flat fitted curve, though single readings scatter; the % refers to the signal ratio. A potency beside an inconclusive call is a rough fit, not a confirmed value.
# Assay: qHTS Assay to Find Inhibitors of Chronic Active B-Cell Receptor Signaling;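 on activity change, negative = inhibition: plate controls were basal doxycycline-induced cells for no effect and cells given 10 µM MG132 for full effect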
# Conditions: ABC-DLBCL IkBa-CBG/CBR reporter, luminescence ratio (green luciferase fused to IkBa over red control in TMD8 lymphoma cells), 4 h; activity change, negative = inhibition: at 46.1 µM (top of the series)
# Outline: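 Cell line TMD8 (human ABC DLBCL), stably expressing tet-inducible CBG68-IkBa fusion and CBR; IMDM/0.5% FBS; cpd up to 46 uM; dox induction, 4 h, 37C/5% CO2; dual luminescence; green/red ratio; MG132 control.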
# Potency means the concentration at half of the fitted maximal effect.
SMILES,"activity change, negative = inhibition",Potency
CCCn1c(SC(C)C(=O)O)nc2ccccc21 (stereo not drawn),inactive,
CCc1nnc(NC(=O)c2ccc(S(=O)(=O)N3CCCc4ccccc43)cc2)o1,inconclusive: -29.7%,
NC(N)=NC(N)=Nc1ccc(SC(F)(F)F)cc1,inconclusive: -8.64%,
COc1ccc(/C=C2\COc3ccccc3C2=O)cc1OC,inconclusive: -9.64%,
CC1CCc2c(C(=O)Nc3ccc(N4CCOCC4)cc3)csc2C1 (stereo not drawn),,"inconclusive: 1.78 µM [rising, full curve, poor fit]"
COC(=O)c1ccc(COc2ccccc2/C=C(\C#N)C(=O)Nc2c(C)cccc2C)cc1,,"inconclusive: 20.6 µM [cytotoxic, partial curve]"
COc1cccc(C(=O)Nc2ccc(NC(=O)C3CC3)cn2)c1,,"inconclusive: 17.8 µM [falling, partial curve]"
CCCC(=O)Nc1ccc(NC(=O)c2cc3ccccc3o2)c(OC)c1,inconclusive: 4.76%,
CCO[C@H]1OC(C(=O)Nc2ccccc2)=C[C@@H](C)[C@@H]1CCCO,inactive,
COc1ccc(-n2c(=O)[nH]c3c(C(N)=O)nc(C4CCCCC4)nc32)cc1,inconclusive: 5.32%,
COc1ccc(OC)c(CNC(=O)C2CCN(C(=O)N(C)C)CC2)c1,inconclusive: 9.78%,
CN(C)C(CNC(=O)CCCOc1ccccc1)c1ccco1 (stereo not drawn),inconclusive: 27.2%,
CN(C)c1ccc(NC(=O)Nc2cccc(Cl)c2)cc1,,"inconclusive: 14.6 µM [falling, partial curve, poor fit]"
Cc1cc(NC(=O)CSc2c3c(nc4ccccc24)CCC3)no1,inconclusive: -25.6%,
O=C(O)CNC(=O)c1ccccc1F,inconclusive: -0.464%,
CC(C)(C)c1cc(NC(=O)CSc2nnc(N)s2)n(-c2ccccc2)n1,inactive,
Cc1cccc(Nc2nc(NCC3CCCO3)nc(N)c2[N+](=O)[O-])c1 (stereo not drawn),inconclusive: -0.201%,
Cc1cc(C(=O)N2CCC(C(=O)O)CC2)c(C(F)(F)F)o1,inconclusive: 27.6%,
Cc1cc(OCc2cc(C(=O)N(C)CC3CCOCC3)no2)cc(C)c1Cl,,"inconclusive: 6.31 µM [falling, partial curve, poor fit]"

SMILES,"activity change, negative = inhibition",Potency
CCOC(=O)c1nnn(CC(=O)NC(=O)Nc2ccccc2)c1C(=O)OCC,,"inconclusive: 6.31 µM [falling, single point]"
Cc1ccc(C(=O)N2CCN(CCNC(=O)C(=O)NCc3ccc(Cl)cc3)CC2)cc1,inactive,
CC(C)c1nc2oc3c(NCC4CCCO4)ncnc3c2c2c1COC(C)(C)C2 (stereo not drawn),inactive,
CCN1CCN(c2ccc(S(=O)(=O)N3CCCCC3)cc2NC(=O)Cc2c(Cl)cccc2Cl)CC1,inconclusive: -0.57%,
COc1ccc(C2SCC(C(=O)O)N2C(C)=O)cc1OC (stereo not drawn),,"inconclusive: 29.1 µM [rising, single point]"
Cc1cc(OCCOCCNC(C)C)cc(C)c1Cl,inconclusive: -14.9%,
CCn1c(=O)n(CC)c2cc(NS(=O)(=O)c3ccccc3)ccc21,inactive,
CN(C)S(=O)(=O)Oc1cccc(C(=O)Nc2ccc(Cl)c(Cl)c2)c1,inconclusive: 0.475%,
COc1cc(/C=C/c2cccc[n+]2C)ccc1OCC(=O)Nc1ccccc1C,inactive,
Cc1ccc(-c2csc(NC(=O)Cn3cnc4c3c(=O)n(C)c(=O)n4C)n2)cc1C,inconclusive: 16.2%,
O=C(c1cnn2c1NC(c1ccco1)CC2C(F)(F)F)N1CCN(c2cccc(Cl)c2)CC1 (stereo not drawn),inconclusive: 3.81%,
O=C1C(=Cc2cccs2)C(=O)c2ccccc21,inactive,
O=C(Nc1cccc(Cn2cccn2)c1)c1cc2c(s1)CCCC2,inconclusive: -28.2%,
CC(=O)Nc1ccc(-n2nnnc2SCC(=O)Nc2cccc(NC(=O)c3ccco3)c2)cc1,,"inconclusive: 17.8 µM [falling, partial curve, poor fit]"
COC(=O)N(NC(=O)C(O)(CCC(C)C)CCC(C)C)c1ccccc1,,"inconclusive: 20.6 µM [falling, partial curve, poor fit]"
COc1cccc2c1C(=O)c1c(O)c3c(c(O)c1C2=O)C[C@@](O)(C(=O)CO)C[C@@H]3O[C@H]1C[C@H](N)[C@H](O)[C@H](C)O1,inconclusive: 14.4%,
COC(=O)c1ccccc1NC(=S)NC(=O)COc1ccc(C(C)C)cc1,inconclusive: 2.55%,
O=C1C=C(c2ccc(Oc3ccccc3)cc2)C[C@@H](c2ccc(F)cc2)C1,,"inconclusive: 0.146 µM [rising, full curve, poor fit]"
O=C(COC(=O)[C@H](Cc1c[nH]c2ccccc12)NC(=O)c1ccc(Cl)cc1)Nc1ccc2c(c1)OCO2,,"inconclusive: 29.1 µM [falling, single point]"

# Part of the list above in order of formula weight, ascending:
SMILES,"activity change, negative = inhibition",Potency
O=C1C(=Cc2cccs2)C(=O)c2ccccc21,inactive,
O=C(Nc1cccc(Cn2cccn2)c1)c1cc2c(s1)CCCC2,inconclusive: -28.2%,
CCn1c(=O)n(CC)c2cc(NS(=O)(=O)c3ccccc3)ccc21,inactive,
O=C1C=C(c2ccc(Oc3ccccc3)cc2)C[C@@H](c2ccc(F)cc2)C1,,"inconclusive: 0.146 µM [rising, full curve, poor fit]"
COC(=O)N(NC(=O)C(O)(CCC(C)C)CCC(C)C)c1ccccc1,,"inconclusive: 20.6 µM [falling, partial curve, poor fit]"
COC(=O)c1ccccc1NC(=S)NC(=O)COc1ccc(C(C)C)cc1,inconclusive: 2.55%,
CN(C)S(=O)(=O)Oc1cccc(C(=O)Nc2ccc(Cl)c(Cl)c2)c1,inconclusive: 0.475%,
Cc1ccc(C(=O)N2CCN(CCNC(=O)C(=O)NCc3ccc(Cl)cc3)CC2)cc1,inactive,
CC(=O)Nc1ccc(-n2nnnc2SCC(=O)Nc2cccc(NC(=O)c3ccco3)c2)cc1,,"inconclusive: 17.8 µM [falling, partial curve, poor fit]"
O=C(c1cnn2c1NC(c1ccco1)CC2C(F)(F)F)N1CCN(c2cccc(Cl)c2)CC1 (stereo not drawn),inconclusive: 3.81%,
CCN1CCN(c2ccc(S(=O)(=O)N3CCCCC3)cc2NC(=O)Cc2c(Cl)cccc2Cl)CC1,inconclusive: -0.57%,
